Series [1] addresses endogenous p53 (nuclear extract) (UniProt P04637). Kind of series: EMSA. The following applies: 5 mM Hepes pH 7.6, 100 mM KCl, 5 mM MgCl2, 1.25 mM DTT, 0.05% NP-40, 2.25% glycerol, 1 ug poly(dI.dC), 6% polyacrylamide gel, temperature not stated, protein in an extract, label: biotin end label. For orientation: A gel shift assay detects complexes by their altered migration in electrophoresis.

The target in series [2] is p53 (recombinant, Active Motif 81091) (Homo sapiens) (UniProt P04637). Put plainly: EMSA. Particulars: + JMJD2D (E. coli cell-free), binding abolished; 5 mM Hepes pH 7.6, 100 mM KCl, 5 mM MgCl2, 1.25 mM DTT, 0.05% NP-40, 2.25% glycerol, 1 ug poly(dI.dC); 6% polyacrylamide gel; temperature not stated; commercial protein; label: biotin end label.
The mark [3] stands for this setting: SK-Hep1 nuclear extract, increased by JMJD2D knockdown, inhibited by JMJD2D restoration.

The exact form of at least one protein or probe is not confirmed. Negatives hold for the conditions tested. For part of these data: Where cells or extracts were used, other partners may take part.

Consider “CTGGCCGTCAGGAACATGTCCCAACATGTTGAGCTCT (double strand) [p21 promoter p53 element]”, for which the binding result is reported as “no binding” in series [1] (+ JMJD2D wild type (E. coli cell-free), binding abolished, legend says endogenous p53); “no binding” in series [1] (+ JMJD2D-S200M (E. coli cell-free), binding abolished, legend says endogenous p53); “binds” in series [1] (setting [3]); “no binding” in series [2].

For the sequence “GCGCGCCTGCAAGTCCTGACTTGTCCGCGGCG (double strand) [PUMA promoter p53 element]”, the binding result in series [1] (setting [3]) is on record as “binds”; in series [2], “no binding”.
